Source: the supplement of paper PMC10849652
The list shows a part of the results.

Amino acid sequences for entries named in this document (tags omitted). A change or cut given only in a name is not applied to a line headed by its entry.
UniProt Q96HS1, whole entry, looked up: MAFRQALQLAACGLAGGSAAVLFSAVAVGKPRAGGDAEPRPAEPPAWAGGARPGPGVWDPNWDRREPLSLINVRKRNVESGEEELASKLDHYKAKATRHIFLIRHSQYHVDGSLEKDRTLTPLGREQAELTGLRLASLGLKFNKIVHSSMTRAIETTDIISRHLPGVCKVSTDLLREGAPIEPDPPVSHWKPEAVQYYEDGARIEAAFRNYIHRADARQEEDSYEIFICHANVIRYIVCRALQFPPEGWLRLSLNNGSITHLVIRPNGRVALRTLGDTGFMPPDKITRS
UniProt Q6P996: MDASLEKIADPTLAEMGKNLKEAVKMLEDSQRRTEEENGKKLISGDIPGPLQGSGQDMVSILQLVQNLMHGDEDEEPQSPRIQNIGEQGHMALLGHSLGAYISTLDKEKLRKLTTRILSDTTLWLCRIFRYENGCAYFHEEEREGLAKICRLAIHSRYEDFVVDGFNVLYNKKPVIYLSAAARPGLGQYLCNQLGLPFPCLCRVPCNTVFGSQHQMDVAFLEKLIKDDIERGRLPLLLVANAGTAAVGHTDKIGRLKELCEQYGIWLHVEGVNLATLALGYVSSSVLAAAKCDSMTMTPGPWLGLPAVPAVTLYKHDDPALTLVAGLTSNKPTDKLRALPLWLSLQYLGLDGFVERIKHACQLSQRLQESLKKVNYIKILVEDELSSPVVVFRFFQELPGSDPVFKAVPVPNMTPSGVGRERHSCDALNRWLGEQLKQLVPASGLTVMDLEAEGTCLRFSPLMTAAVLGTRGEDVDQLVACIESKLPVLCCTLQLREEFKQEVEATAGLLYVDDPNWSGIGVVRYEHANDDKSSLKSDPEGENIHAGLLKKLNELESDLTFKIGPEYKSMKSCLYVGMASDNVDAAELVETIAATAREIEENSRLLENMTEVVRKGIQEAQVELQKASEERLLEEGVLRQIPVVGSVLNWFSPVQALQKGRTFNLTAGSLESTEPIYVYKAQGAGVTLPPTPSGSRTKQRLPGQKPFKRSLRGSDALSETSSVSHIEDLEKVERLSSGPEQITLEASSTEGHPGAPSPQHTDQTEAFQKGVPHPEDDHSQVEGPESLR
UniProt O94913, whole entry, looked up: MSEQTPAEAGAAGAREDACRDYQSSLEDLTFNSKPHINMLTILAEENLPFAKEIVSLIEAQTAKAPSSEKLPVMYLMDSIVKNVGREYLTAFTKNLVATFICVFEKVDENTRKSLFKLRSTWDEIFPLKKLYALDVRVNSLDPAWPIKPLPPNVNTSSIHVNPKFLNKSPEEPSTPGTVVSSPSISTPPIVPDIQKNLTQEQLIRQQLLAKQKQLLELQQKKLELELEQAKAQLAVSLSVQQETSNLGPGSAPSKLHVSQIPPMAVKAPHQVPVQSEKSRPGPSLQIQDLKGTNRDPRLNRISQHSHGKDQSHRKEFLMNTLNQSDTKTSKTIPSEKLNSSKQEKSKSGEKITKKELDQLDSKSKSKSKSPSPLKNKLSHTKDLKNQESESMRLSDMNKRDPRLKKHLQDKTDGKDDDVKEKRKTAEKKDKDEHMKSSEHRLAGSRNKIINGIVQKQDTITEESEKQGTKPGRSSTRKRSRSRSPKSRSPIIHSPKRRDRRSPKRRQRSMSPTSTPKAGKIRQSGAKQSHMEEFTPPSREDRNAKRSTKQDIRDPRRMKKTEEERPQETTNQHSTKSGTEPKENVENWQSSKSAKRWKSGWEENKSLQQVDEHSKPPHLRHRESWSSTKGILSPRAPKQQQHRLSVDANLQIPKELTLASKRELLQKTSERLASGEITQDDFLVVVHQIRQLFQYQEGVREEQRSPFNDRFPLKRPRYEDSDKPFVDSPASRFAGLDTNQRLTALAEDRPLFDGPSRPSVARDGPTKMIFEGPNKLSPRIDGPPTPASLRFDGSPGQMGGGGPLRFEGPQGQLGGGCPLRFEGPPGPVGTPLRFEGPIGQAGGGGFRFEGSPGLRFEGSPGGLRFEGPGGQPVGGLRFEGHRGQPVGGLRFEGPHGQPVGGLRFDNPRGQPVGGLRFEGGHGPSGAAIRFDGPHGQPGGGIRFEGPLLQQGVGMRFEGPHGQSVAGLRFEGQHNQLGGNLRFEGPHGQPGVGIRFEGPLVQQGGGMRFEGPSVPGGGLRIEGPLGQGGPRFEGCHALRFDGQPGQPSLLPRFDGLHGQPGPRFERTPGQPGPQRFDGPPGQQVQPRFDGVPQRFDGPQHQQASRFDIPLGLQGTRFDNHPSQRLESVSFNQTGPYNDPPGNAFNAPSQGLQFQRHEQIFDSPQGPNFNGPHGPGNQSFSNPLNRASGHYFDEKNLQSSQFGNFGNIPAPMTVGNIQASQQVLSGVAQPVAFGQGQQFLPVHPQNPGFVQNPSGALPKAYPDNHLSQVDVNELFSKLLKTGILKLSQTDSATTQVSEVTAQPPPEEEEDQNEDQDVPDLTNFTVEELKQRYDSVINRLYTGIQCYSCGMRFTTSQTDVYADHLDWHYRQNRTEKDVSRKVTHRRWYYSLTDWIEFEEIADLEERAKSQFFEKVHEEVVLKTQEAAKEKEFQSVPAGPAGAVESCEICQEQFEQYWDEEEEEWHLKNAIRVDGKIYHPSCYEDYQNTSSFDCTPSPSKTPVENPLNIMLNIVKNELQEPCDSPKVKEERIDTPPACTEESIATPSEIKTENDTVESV
UniProt P30039: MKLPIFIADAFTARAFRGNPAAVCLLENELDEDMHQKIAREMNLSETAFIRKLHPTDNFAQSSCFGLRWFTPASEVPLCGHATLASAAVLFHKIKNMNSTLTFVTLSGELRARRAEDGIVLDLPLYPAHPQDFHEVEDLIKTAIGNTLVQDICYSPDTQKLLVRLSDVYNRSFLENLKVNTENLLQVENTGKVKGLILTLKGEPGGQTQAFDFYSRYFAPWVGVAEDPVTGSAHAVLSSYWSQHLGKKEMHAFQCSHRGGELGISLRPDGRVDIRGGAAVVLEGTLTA
UniProt Q96RG2: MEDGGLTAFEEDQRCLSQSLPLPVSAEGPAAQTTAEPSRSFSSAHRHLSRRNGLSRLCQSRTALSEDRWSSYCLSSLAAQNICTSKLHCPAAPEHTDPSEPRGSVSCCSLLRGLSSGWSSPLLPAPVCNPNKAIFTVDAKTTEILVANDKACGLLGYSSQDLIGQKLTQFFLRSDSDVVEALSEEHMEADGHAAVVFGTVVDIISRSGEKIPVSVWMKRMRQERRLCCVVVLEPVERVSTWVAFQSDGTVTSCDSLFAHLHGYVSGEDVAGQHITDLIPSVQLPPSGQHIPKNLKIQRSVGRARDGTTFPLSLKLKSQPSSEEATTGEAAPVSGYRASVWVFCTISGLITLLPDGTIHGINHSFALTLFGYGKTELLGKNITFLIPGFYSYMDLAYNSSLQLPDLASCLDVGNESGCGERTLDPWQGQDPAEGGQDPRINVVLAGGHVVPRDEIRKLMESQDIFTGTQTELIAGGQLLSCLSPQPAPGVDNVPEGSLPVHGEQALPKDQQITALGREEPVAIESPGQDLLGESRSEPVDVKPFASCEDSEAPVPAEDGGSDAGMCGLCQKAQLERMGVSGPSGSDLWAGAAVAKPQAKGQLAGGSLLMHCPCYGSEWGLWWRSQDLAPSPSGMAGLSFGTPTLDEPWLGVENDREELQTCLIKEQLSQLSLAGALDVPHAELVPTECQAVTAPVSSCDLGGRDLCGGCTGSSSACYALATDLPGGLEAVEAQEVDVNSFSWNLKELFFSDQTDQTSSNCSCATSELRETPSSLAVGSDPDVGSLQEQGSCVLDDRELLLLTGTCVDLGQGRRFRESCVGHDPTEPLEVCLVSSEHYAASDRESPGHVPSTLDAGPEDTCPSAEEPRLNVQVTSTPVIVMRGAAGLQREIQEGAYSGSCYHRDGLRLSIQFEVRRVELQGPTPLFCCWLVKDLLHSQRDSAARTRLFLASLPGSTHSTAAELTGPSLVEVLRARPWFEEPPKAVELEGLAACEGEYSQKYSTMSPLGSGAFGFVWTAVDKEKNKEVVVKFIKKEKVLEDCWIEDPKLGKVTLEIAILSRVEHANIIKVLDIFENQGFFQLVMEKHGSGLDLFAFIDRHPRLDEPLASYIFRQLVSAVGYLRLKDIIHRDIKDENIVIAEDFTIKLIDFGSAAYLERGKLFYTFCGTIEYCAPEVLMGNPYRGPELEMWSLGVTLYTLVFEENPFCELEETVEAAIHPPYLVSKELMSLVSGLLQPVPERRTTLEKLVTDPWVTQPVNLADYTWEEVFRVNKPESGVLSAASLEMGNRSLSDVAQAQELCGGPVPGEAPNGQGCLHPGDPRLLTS
UniProt Q8NBP7, whole entry, looked up: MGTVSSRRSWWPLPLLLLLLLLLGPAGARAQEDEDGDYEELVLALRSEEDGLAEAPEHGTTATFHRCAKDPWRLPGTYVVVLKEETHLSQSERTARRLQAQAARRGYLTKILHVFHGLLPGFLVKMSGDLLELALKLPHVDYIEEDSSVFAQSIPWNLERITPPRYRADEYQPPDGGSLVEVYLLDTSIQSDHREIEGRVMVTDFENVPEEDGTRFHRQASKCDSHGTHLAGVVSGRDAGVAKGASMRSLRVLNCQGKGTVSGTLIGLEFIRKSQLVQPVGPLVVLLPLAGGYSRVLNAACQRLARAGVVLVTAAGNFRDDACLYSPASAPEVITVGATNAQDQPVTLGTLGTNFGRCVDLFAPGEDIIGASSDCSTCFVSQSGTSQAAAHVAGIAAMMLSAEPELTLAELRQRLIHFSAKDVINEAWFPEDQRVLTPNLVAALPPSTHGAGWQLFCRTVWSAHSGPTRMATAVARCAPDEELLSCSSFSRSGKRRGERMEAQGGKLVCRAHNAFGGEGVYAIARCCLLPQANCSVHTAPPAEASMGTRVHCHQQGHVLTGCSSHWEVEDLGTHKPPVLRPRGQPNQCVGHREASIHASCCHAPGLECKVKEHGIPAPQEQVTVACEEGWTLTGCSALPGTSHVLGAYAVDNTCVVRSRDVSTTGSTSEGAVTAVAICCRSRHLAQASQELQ
UniProt Q15121, whole entry, looked up: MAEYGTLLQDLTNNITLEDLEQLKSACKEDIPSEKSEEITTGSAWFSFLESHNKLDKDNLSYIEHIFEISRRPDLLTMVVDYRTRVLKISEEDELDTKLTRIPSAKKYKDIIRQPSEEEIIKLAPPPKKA
UniProt Q9HBH1: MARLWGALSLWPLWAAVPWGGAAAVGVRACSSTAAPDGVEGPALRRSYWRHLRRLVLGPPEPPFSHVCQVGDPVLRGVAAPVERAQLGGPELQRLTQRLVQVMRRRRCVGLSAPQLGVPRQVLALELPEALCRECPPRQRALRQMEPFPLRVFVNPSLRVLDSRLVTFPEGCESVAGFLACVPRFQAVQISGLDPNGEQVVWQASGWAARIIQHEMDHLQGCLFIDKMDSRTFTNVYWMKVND
UniProt Q9NUG6, whole entry, looked up: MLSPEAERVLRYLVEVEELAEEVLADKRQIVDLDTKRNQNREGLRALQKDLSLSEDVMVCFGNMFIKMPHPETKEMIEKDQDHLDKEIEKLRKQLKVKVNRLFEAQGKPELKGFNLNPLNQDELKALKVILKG
UniProt Q9H0N5: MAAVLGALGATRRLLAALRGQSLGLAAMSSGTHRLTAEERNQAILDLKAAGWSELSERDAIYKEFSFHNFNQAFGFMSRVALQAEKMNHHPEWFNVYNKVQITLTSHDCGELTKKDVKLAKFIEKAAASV
UniProt Q9Y5B6: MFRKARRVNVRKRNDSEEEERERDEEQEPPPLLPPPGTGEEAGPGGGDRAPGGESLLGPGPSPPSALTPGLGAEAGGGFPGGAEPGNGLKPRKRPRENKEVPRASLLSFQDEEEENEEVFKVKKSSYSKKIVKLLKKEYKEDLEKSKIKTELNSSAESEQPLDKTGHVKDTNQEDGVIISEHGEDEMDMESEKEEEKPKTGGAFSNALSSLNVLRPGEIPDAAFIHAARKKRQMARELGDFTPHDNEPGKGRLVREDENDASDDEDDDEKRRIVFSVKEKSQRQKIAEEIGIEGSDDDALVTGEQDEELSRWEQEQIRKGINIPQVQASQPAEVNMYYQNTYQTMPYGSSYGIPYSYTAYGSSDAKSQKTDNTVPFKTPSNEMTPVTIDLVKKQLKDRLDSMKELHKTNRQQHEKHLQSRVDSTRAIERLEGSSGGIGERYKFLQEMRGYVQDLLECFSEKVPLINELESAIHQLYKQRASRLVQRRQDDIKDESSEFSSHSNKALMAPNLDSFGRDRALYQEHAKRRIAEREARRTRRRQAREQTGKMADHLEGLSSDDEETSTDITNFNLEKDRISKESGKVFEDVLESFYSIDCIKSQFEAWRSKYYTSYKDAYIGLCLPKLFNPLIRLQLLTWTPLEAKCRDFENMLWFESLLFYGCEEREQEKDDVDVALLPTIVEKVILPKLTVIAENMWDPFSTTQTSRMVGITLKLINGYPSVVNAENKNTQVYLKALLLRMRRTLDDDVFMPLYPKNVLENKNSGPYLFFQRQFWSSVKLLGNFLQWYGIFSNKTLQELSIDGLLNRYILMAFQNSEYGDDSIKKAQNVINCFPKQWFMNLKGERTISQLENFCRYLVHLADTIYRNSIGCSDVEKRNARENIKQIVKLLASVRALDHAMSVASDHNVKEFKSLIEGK

Experiments:
Assay in all cases: log2 fold change, soluble protein after heating vs DMSO (PISA); higher = thermal stabilisation; K562 lysate, 10 uM; active = over 0.2 and 3.5 SD of the protein, either way, in both replicates (recomputed)
erlotinib = compound: C#Cc1cccc(Nc2ncnc3cc(OCCOC)c(OCCOC)cc23)c1 [erlotinib]
How it was run: (§1)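 K562 pellets were dounce-homogenised in PBS pH 7.4 with 1 mM MgCl2, and the crude extract at 1 mg/mL protein was treated with 10 μM compound for 30 min. Aliquots were heated for 3 min across 48°C-58°C, pooled, and brought to 0.5% NP-40 at 4°C; soluble protein was the supernatant after 21,000xg for 90 min. Soluble protein was quantified by TMTpro 16plex LC-MS/MS with channel sums equalised, and reported as log2 fold change in thermal stability against DMSO controls, with values from duplicates.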

[1] = compound: C/C(=N\NC(=O)C1=CC(=CC=C1)S(=O)(=O)N2CCOCC2)/C3=C(C=CC(=C3)Cl)O
How it was run: as §1

[2] = compound: C1=CC(=CC=C1C2=NC3=C(N2)C=C(C=C3)C(=O)N)OC4=CC=C(C=C4)Cl
How it was run: as §1

[3] = compound: C1=CC2=C(C=CC(=C2)/C=C\3/C(=O)NC(=NCC4=CC=CS4)S3)N=C1
How it was run: as §1

[4] = compound: C1=CC2=NC=CN=C2C=C1/C=C/3\C(=O)NC(=O)S3
How it was run: as §1

[5] = compound: C1=CC=C(C=C1)C2=NC(=C(N2)C3=CC=NC=C3)C4=CC(=C(C=C4)Cl)O
How it was run: as §1

[6] = compound: C1=CC=C2C(=C1)C3=NNC4=CC=CC(=C43)C2=O
How it was run: as §1

[7] = compound: C1CCN(C1)C(=O)NC2=CC=CC(=C2)NC3=NC=C(C(=N3)NCCC4=CN=CN4)Br
How it was run: as §1

[8] = compound: C1CN(CCC1(CC2=CC=C(C=C2)Cl)N)C3=NC=NC4=C3C=CN4
How it was run: as §1

IRAK-1-4 Inhibitor I = compound: C1COCCN1CCN2C3=CC=CC=C3N=C2NC(=O)C4=CC(=CC=C4)[N+](=O)[O-] [IRAK-1-4 Inhibitor I]
How it was run: as §1

Measured: log2 fold change

PGAM5 (UniProt Q96HS1)
inactive: erlotinib -0.03 | [1] -0.002 | [2] -0.025 | [3] 0.032 | [4] -0.016 | [5] -0.009 | [6] -0.022 | [7] -0.002 | [8] 0.016 | IRAK-1-4 Inhibitor I 0.01

PDPK1 (UniProt O15530)
inactive: erlotinib -0.066 | [1] -0.007 | [2] -0.081 | [3] -0.047 | [4] -0.055 | [5] 0.005 | [6] 0.298 | [8] 0.019 | IRAK-1-4 Inhibitor I 0.018
active: [7] 0.552

PDXK (UniProt O00764)
inactive: erlotinib -0.003 | [1] 0.02 | [2] 0.103 | [3] -0.019 | [4] -0.02 | [5] -0.008 | [6] 0.021 | [7] 0.037 | [8] -0.012 | IRAK-1-4 Inhibitor I 0.018

PDXDC1 (UniProt Q6P996)
inactive: erlotinib -0.012 | [1] 0.008 | [2] -0.095 | [3] 0.034 | [4] 0.013 | [5] -0.005 | [6] 0.024 | [7] -0.011 | [8] -0.024 | IRAK-1-4 Inhibitor I -0.006

PEX5 isoform 4 (UniProt P50542)
inactive: erlotinib 0.053 | [1] 0.042 | [2] -0.199 | [3] -0.041 | [4] 0.058 | [5] -0.02 | [6] -0.045 | [7] -0.13 | [8] 0.081 | IRAK-1-4 Inhibitor I -0.014

PAXIP1 (UniProt Q6ZW49)
inactive: erlotinib -0.049 | [1] -0.013 | [2] -0.069 | [3] 0.046 | [4] -0.09 | [5] 0.017 | [6] 0.029 | [7] -0.003 | [8] 0.017 | IRAK-1-4 Inhibitor I -0.009

PCF11 (UniProt O94913)
inactive: erlotinib 0.031 | [1] -0.063 | [2] 0.014 | [3] 0.008 | [4] -0.044 | [5] -0.025 | [6] -0.028 | [7] 0.005 | [8] 0.005 | IRAK-1-4 Inhibitor I -0.017

PFDN6 (UniProt O15212)
inactive: erlotinib -0.001 | [1] 0.034 | [2] 0.015 | [3] -0.034 | [4] 0.023 | [5] 0.015 | [6] 0.036 | [7] 0.052 | [8] 0.015 | IRAK-1-4 Inhibitor I 0.006

PBLD (UniProt P30039)
inactive: erlotinib 0.022 | [1] -0.038 | [2] -0.001 | [3] -0.05 | [4] -0.131 | [5] 0.029 | [6] -0.128 | [7] -0.044 | [8] -0.025 | IRAK-1-4 Inhibitor I 0.217

PASK (UniProt Q96RG2)
inactive: erlotinib -0.003 | [1] 0.017 | [2] 0 | [3] 0.045 | [4] 0.033 | [5] 0.021 | [6] 0.021 | [7] -0.033 | [8] 0.103 | IRAK-1-4 Inhibitor I 0.029

PCSK9 (UniProt Q8NBP7)
inactive: erlotinib 0.027 | [1] 0.167 | [2] -0.006 | [3] -0.104 | [4] -0.09 | [5] -0.007 | [6] 0.014 | [7] 0.058 | [8] 0 | IRAK-1-4 Inhibitor I 0.075

PFDN2 (UniProt Q9UHV9)
inactive: erlotinib -0.055 | [1] -0.003 | [2] -0.038 | [3] 0.006 | [4] 0 | [5] -0.027 | [6] 0.071 | [7] 0.043 | [8] -0.026 | IRAK-1-4 Inhibitor I -0.015

PGAM4 (UniProt Q8N0Y7)
inactive: erlotinib 0.02 | [1] -0.023 | [2] 0.031 | [3] -0.032 | [4] 0.007 | [5] -0.007 | [6] 0 | [7] 0.008 | [8] 0 | IRAK-1-4 Inhibitor I 0.04

PDCD5 (UniProt O14737)
inactive: erlotinib -0.038 | [1] 0.017 | [2] -0.014 | [3] -0.034 | [4] 0 | [5] 0.005 | [6] 0.017 | [7] -0.004 | [8] 0.007 | IRAK-1-4 Inhibitor I -0.009

PEA15 isoform 2 (UniProt Q15121)
inactive: erlotinib -0.014 | [1] -0.028 | [2] 0.034 | [3] 0.032 | [4] -0.085 | [5] -0.011 | [6] -0.039 | [7] 0.001 | [8] 0.025 | IRAK-1-4 Inhibitor I 0.007

PDF (UniProt Q9HBH1)
inactive: erlotinib 0.033 | [1] 0.07 | [2] -0.072 | [3] 0.005 | [4] -0.066 | [5] 0.066 | [6] -0.013 | [7] 0.047 | [8] -0.063 | IRAK-1-4 Inhibitor I 0.055

PCGF2 (UniProt P35227)
inactive: erlotinib -0.016 | [1] -0.093 | [2] -0.081 | [3] 0.068 | [4] -0.017 | [5] 0.012 | [6] -0.009 | [7] -0.046 | [8] 0.041 | IRAK-1-4 Inhibitor I 0.018

PCYOX1 (UniProt Q9UHG3)
inactive: erlotinib -0.018 | [1] -0.021 | [2] 0.031 | [3] 0.03 | [4] 0.022 | [5] -0.032 | [6] 0.003 | [7] 0.039 | [8] 0.012 | IRAK-1-4 Inhibitor I -0.03

PDLIM7 (UniProt Q9NR12)
inactive: erlotinib -0.014 | [1] -0.083 | [2] 0.029 | [3] -0.019 | [4] 0.005 | [5] -0.003 | [6] -0.022 | [7] 0.002 | [8] 0.018 | IRAK-1-4 Inhibitor I 0.003

PELO (UniProt Q9BRX2)
inactive: erlotinib 0 | [1] -0.047 | [2] -0.058 | [3] -0.014 | [4] -0.002 | [5] 0 | [6] -0.038 | [7] -0.021 | [8] -0.049 | IRAK-1-4 Inhibitor I 0

PDHX (UniProt O00330)
inactive: erlotinib 0 | [1] 0.039 | [2] 0.006 | [3] 0.013 | [4] -0.055 | [5] -0.007 | [6] -0.023 | [7] 0.031 | [8] -0.035 | IRAK-1-4 Inhibitor I -0.014

PDZD8 (UniProt Q8NEN9)
inactive: erlotinib -0.021 | [1] -0.093 | [2] -0.036 | [3] 0.113 | [4] 0.031 | [5] -0.012 | [6] -0.093 | [7] 0.007 | [8] 0.036 | IRAK-1-4 Inhibitor I 0.015

PDIA3 (UniProt P30101)
inactive: erlotinib -0.023 | [1] 0.013 | [2] -0.011 | [3] -0.031 | [4] 0.003 | [5] -0.014 | [6] 0.007 | [7] 0.024 | [8] -0.009 | IRAK-1-4 Inhibitor I -0.009

PDRG1 (UniProt Q9NUG6)
inactive: erlotinib -0.028 | [1] 0.02 | [2] 0.066 | [3] -0.031 | [4] -0.037 | [5] 0.009 | [6] 0.042 | [7] -0.119 | [8] 0.093 | IRAK-1-4 Inhibitor I 0.03

PDE4DIP isoform 4 (UniProt Q5VU43)
inactive: erlotinib 0.002 | [1] -0.026 | [2] 0.017 | [3] 0.004 | [4] -0.004 | [5] 0 | [6] -0.111 | [7] -0.009 | [8] 0.055 | IRAK-1-4 Inhibitor I 0.024

PEX14 (UniProt O75381)
inactive: erlotinib -0.034 | [1] 0.028 | [2] 0.024 | [3] 0.012 | [4] -0.008 | [5] -0.024 | [6] -0.054 | [7] 0.019 | [8] 0.03 | IRAK-1-4 Inhibitor I 0.018

PCBD2 (UniProt Q9H0N5)
inactive: erlotinib -0.012 | [1] -0.033 | [2] 0.044 | [3] -0.022 | [4] 0.079 | [5] 0.005 | [6] -0.014 | [7] -0.018 | [8] -0.015 | IRAK-1-4 Inhibitor I -0.01

PAXBP1 (UniProt Q9Y5B6)
inactive: erlotinib 0.019 | [1] -0.035 | [2] 0.025 | [3] -0.01 | [4] 0.018 | [5] 0.026 | [6] -0.04 | [7] -0.022 | [8] 0.029 | IRAK-1-4 Inhibitor I 0.013

PFDN4 (UniProt Q9NQP4)
inactive: erlotinib -0.037 | [1] -0.075 | [2] 0.004 | [3] -0.06 | [4] -0.022 | [5] 0.056 | [6] 0.081 | [7] -0.02 | [8] 0.082 | IRAK-1-4 Inhibitor I -0.01

PCYOX1L (UniProt Q8NBM8)
inactive: erlotinib -0.07 | [1] -0.022 | [2] -0.027 | [3] -0.076 | [4] 0.003 | [5] 0.009 | [6] -0.081 | [7] 0.019 | [8] -0.022 | IRAK-1-4 Inhibitor I 0.014
